This note sets out measurements from patent publication US11426367B2, “Methods of treating substance abuse” (Perception Neuroscience, Inc., priority 2018, dated 2022).

The conditions of this data set: morphine 10 mg/kg SC twice daily, measured 2 h post dose on days 3, 6, 9 and 12; previous in-house studies.

Take `CN1CC[C@]23c4c5ccc(O)c4O[C@H]2[C@@H](O)C=C[C@H]3[C@H]1C5` [morphine, Morphine]: the morphine plasma levels is -550 ng/mL.
